PubChem BioAssay AID2685 (National Center for Advancing Translational Sciences (NCATS), 2010)
The list shows a part of the results. Further columns of the screen follow, without active or inactive calls. Compounds called inactive in the main read-out are mostly missing here. Words in brackets tell the shape of the fitted curve; partial curves, single points and poor fits give uncertain potencies.

Experiment: qHTS Assay for Lipid Storage Modulators in Drosophila S3 Cells;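 for cell number change: cells counted by Cell Tracker Red CMTPX staining in the red channel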
Details: BODIPY lipid droplet fluorescence, 18-24 h; for cell number change: measured here: cell count max response, cells fed with added oleic acid
Summary of the method: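 Laser-scanning cytometry quantifies lipid droplet accumulation (500–530 nm total intensity; droplet/cell object ratio) in oleic acid-fed (400 uM added) Drosophila S3 cells treated with a concentration series. 20 uM Triacsin C defined 100% inhibition.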

[1] = measured here: lipid fluorescence (Fed channel) AC50, cells fed with added oleic acid
[2] = measured here: cell number channel AC50, cells fed with added oleic acid

Compound | cell number change [%] | AC50 [1] | AC50 [2]
COc1cccc(OC)c1C(=O)NC(=S)Nc1ccc2c(c1)OCCO2 | -1.91 |  | 
COc1ccc(N(C(=O)CNC(=O)c2ccco2)C(C(=O)NCC2CCCO2)c2ccccc2)cc1 (stereo not drawn) | 20 |  | 
O=C(COc1cccnc1[N+](=O)[O-])Nc1cccc2ccccc12 | 2.87 | 6.51 µM [rising, single point] | 
COC(=O)[C@H](Cc1ccccc1)NC(=O)Nc1ccc(S(N)(=O)=O)cc1 |  | 3.66 µM [falling, full curve] | 0.0058 µM [falling, full curve, poor fit]
CC1(C)CC(=NO)CC(C)(C)N1 | 1.27 | 0.651 µM [rising, full curve, poor fit] | 
CC1CCN(C(c2ccccc2)c2nnnn2C(C)(C)C)CC1 (stereo not drawn) |  | 18.4 µM [falling, single point] | 
Fc1ccc(Oc2nnnn2-c2ccccc2)cc1 | 154 |  | 
Cc1ccc(CC(=O)O/N=C(\N)c2ccccn2)cc1 | 36.8 |  | 25.9 µM [rising, single point]
Cc1ccc(S(=O)(=O)NCC(c2ccccc2)N2CCN(c3ccc(F)cc3)CC2)cc1 (stereo not drawn) | -4.59 | 3.66 µM [falling, full curve, poor fit] | 
O=C(c1cccc(S(=O)(=O)N2CCOCC2)c1)N(Cc1ccco1)Cc1cccs1 | -5.78 | 1.84 µM [rising, partial curve, poor fit] | 
Cc1nc2ccccn2c1C(=O)NNS(=O)(=O)c1ccc(Cl)cc1 | -30.9 | 2.06 µM [rising, partial curve, poor fit] | 29.1 µM [falling, single point]
COc1ccc(C(C)=O)cc1CSc1nc2cc(Cl)ccc2o1 | 62.8 |  | 2.31 µM [rising, full curve]
O=C(Nc1nc2ccccc2[nH]1)c1cccc(Cl)c1 | -6.35 |  | 
CC1=NN(c2ccc(C(=O)OC(C)C)cc2)C(=O)/C1=C\C=C\c1ccco1 | -68.1 | 7.31 µM [falling, partial curve] | 23.1 µM [falling, partial curve]
Cn1nnnc1Sc1ncnc2scc(-c3ccccc3C(F)(F)F)c12 | -19.4 | 6.51 µM [rising, partial curve, poor fit] | 
Cc1ccc(Sc2cc(C(=O)NCCN(C)C)c3ccccc3n2)cc1 | 15.6 | 10.3 µM [rising, partial curve] | 
Cc1ccc(NC(=O)Cn2nc(C)c(S(=O)(=O)N(C)C)c2C)cc1 | 21.5 |  | 6.51 µM [rising, partial curve, poor fit]
COc1ccc(S(=O)(=O)N2CCC(C(=O)NCCC(=O)NCc3ccccc3OC)CC2)cc1 | -17.1 | 14.6 µM [rising, single point] | 
O=C(CN1CCC(NC(=O)c2ccccc2Cl)CC1)NCc1ccccc1 | -6.58 |  | 

Some of the entries so far, tab-delimited.
Compound	cell number change [%]	AC50 [1]	AC50 [2]
Fc1ccc(Oc2nnnn2-c2ccccc2)cc1	154		
Cc1ccc(CC(=O)O/N=C(\N)c2ccccn2)cc1	36.8		25.9 µM [rising, single point]
Cc1ccc(S(=O)(=O)NCC(c2ccccc2)N2CCN(c3ccc(F)cc3)CC2)cc1 (stereo not drawn)	-4.59	3.66 µM [falling, full curve, poor fit]	
O=C(c1cccc(S(=O)(=O)N2CCOCC2)c1)N(Cc1ccco1)Cc1cccs1	-5.78	1.84 µM [rising, partial curve, poor fit]	
Cc1nc2ccccn2c1C(=O)NNS(=O)(=O)c1ccc(Cl)cc1	-30.9	2.06 µM [rising, partial curve, poor fit]	29.1 µM [falling, single point]
COc1ccc(C(C)=O)cc1CSc1nc2cc(Cl)ccc2o1	62.8		2.31 µM [rising, full curve]
O=C(Nc1nc2ccccc2[nH]1)c1cccc(Cl)c1	-6.35		
CC1=NN(c2ccc(C(=O)OC(C)C)cc2)C(=O)/C1=C\C=C\c1ccco1	-68.1	7.31 µM [falling, partial curve]	23.1 µM [falling, partial curve]
Cc1ccc(Sc2cc(C(=O)NCCN(C)C)c3ccccc3n2)cc1	15.6	10.3 µM [rising, partial curve]	
O=C(CN1CCC(NC(=O)c2ccccc2Cl)CC1)NCc1ccccc1	-6.58		

(further entries)

Compound | cell number change [%] | AC50 [1] | AC50 [2]
CCOC(=O)C1CCN(C(=O)c2cc3c(C)cc(C)cc3[nH]2)CC1 | 8.62 | 5.8 µM [rising, single point] | 
Oc1ccc(Cl)cc1CNc1cccc2cccnc12 | -47.5 | 25.9 µM [rising, single point] | 14.6 µM [falling, single point]
CC(=O)N1CCN(CC(O)COc2ccc(S(=O)(=O)N3CCOCC3)cc2)CC1 (stereo not drawn) | -8.8 | 0.0206 µM [falling, full curve, poor fit] | 
CCOc1ccc2nc(SC3CC(=O)N(c4cccc(OC)c4)C3=O)sc2c1 (stereo not drawn) | 13.8 | 1.03 µM [falling, single point] | 0.651 µM [falling, single point]
COC(=O)c1c(-c2ccccc2)csc1NC(=O)C1CC=CCC1C(=O)O (stereo not drawn) | 2.26 |  | 0.00461 µM [falling, full curve, poor fit]
COc1ccc(C2=NOC3(CC(=O)N(c4ccc(C)cc4)C3=O)C2)c(OC)c1 (stereo not drawn) | -0.261 |  | 
Nc1nnc(CSCc2ccc(F)cc2)s1 |  | 0.13 µM [falling, full curve, poor fit] | 
NC(=O)C1CCCN(C(=O)c2ccc3c(c2)NC(=O)CS3)C1 (stereo not drawn) | 24.1 | 16.4 µM [rising, partial curve] | 
O=C(COC(=O)c1ccccc1NC(=O)c1ccccc1)c1cccc([N+](=O)[O-])c1 | 34 |  | 29.1 µM [rising, single point]
O=C(OCCc1cc2ccccc2c(=O)o1)N1CCOCC1 | -18.5 | 0.058 µM [rising, partial curve, poor fit] | 0.651 µM [rising, single point]
N#CCN1C(=O)C(=O)N(Cc2cccc(C(F)(F)F)c2)C1=O | 22.4 |  | 
O=C(CCc1nnc2ccc(N3CCCCC3)nn12)NCc1ccco1 | 0.943 | 29.1 µM [rising, single point] | 
COc1cccc(CNC(=O)Cn2cc3c(n2)CCCC3)c1 | 10.7 | 6.51 µM [falling, partial curve, poor fit] | 
CC(OC(=O)CCN1C(=O)C2CC=CCC2C1=O)C(=O)c1ccc(F)cc1 (stereo not drawn) | -4.45 | 29.1 µM [rising, single point] | 
Cc1c(NC(=O)COc2ncnc3ccccc23)c(=O)n(-c2ccccc2)n1C | 7.46 |  | 0.146 µM [falling, full curve, poor fit]
CC(=O)C(C)n1c(CN(C)Cc2ccccc2)nc2c1c(=O)n(C)c(=O)n2C (stereo not drawn) | -34.6 |  | 16.4 µM [falling, single point]
CCOc1ccc(CSCCNC(=S)Nc2ccccc2)cc1 | -15.2 | 16.4 µM [falling, single point] | 
C#CCOCCOCCOCCNc1nc(N2CCN(C(=O)[C@H](CCCCN)n3cc(CCC(=O)O)nn3)CC2)nc(N2CCN(C(=O)[C@H](CCCCN)n3cc(CC(C)O)nn3)CC2)n1 (stereo partly drawn) | -4.7 | 6.51 µM [rising, single point] | 
C#CCN1C(=O)S/C(=C\c2cc3c(cc2OC)OCO3)C1=O | -6.3 | 29.1 µM [falling, single point] | 0.146 µM [rising, full curve, poor fit]
